Some of the results follow. Shown are side measurements of this screen, not its main read-out; they come without a call. Most of these compounds were active or inconclusive in the main read-out, so they are no random draw. The note in brackets gives the kind of curve behind each potency; many fits are weak.
Assay: IkB Signaling
Settings: ABC-DLBCL IkBa-CBG/CBR dual luciferase ratio (green luciferase fused to IkBa over red control in OCI-Ly3 lymphoma cells), 4 h
How it was run: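 Luminescence ratio of IκBα-fused green versus native red beetle luciferase in OCI-Ly3 cells, 4 h post-doxycycline with compound; red signal alone, scaled from basal (0%) to zero light (-100%), flagged nonspecific or cytotoxic effects.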

[1] = measured here: control luc red channel unless noted

In the case of `O=C(CSc1nc(-c2ccco2)nc2cc(=O)[nH]n12)Nc1ccc(F)cc1`, the AC50 [1] is reported as 20 µM [falling, single point].

With `COc1ccccc1NC(=O)C1=C(C)Nc2nnnn2C1c1cc(Br)ccc1OC` (configuration not stated) the AC50 [1] was 25.1 µM [falling, single point].

In the case of `COc1ccc(C2CC(=O)Nc3cc4c(cc32)OCO4)c(OC)c1` (configuration not stated), the AC50 [1] is reported as 39.8 µM [falling, single point].

For `Cc1nc2nc(COc3ccccc3)[nH]n2c(=O)c1C`, the AC50 [1] was 7.94 µM [falling, partial curve].

With `Cc1ccccc1OCC(=O)Nc1ccc2[nH]c(=O)sc2c1` the AC50 [1] was 39.8 µM [falling, single point].

With `CCOC(=O)N1CCC(NC(=O)c2ccc3c(c2)N(Cc2ccc(F)cc2)C(=O)c2ccccc2S3=O)CC1` (configuration not stated) the AC50 [1] was 12.6 µM [falling, partial curve].

For `CS(=O)(=O)Nc1ccc(Cc2ccc(NS(C)(=O)=O)cc2)cc1`, the AC50 [1] was 25.1 µM [falling, partial curve].

For `Cc1ccc(CCNC(=O)C(C)n2nc(C)c3c(C)n(-c4ccc(C)cc4)nc3c2=O)cc1` (configuration not stated), the AC50 [1] was 15.8 µM [falling, partial curve].

With `CCc1ccc(C2CC(=O)c3c([nH]c(C(=O)OC4CCCCCC4)c3C)C2)cc1` (configuration not stated) the AC50 [1] was 2 µM [rising, full curve].

With `CC(=O)c1ccc(NC(=O)COc2ccccc2-c2nc(C(C)C)no2)cc1` the AC50 [1] was 15.8 µM [falling, partial curve].

For `OCc1cn(-c2ccccc2)nc1-c1ccc2c(c1)OCCO2`, the AC50 [1] was 20 µM [falling, single point].

For `COc1ccc(C)cc1Nc1c2c(nc3ccccc13)CCC2`, the AC50 [1] was 6.31 µM [rising, single point].

With `O=C(c1ccc(Cl)cc1)N1CCC(c2nc(-c3cccs3)no2)CC1` the AC50 (measured here: IkB-luc green channel) was 25.1 µM [falling, partial curve] and the AC50 (measured here: control luc red channel) was 15.8 µM [falling, partial curve].

In the case of `O=C(COc1ccccc1)Nc1nnc2n1CCS2`, the AC50 [1] is reported as 0.126 µM [falling, single point].

For `CC(C)(C)C(=O)Cn1c(=O)n(CCCCCC(=O)NCc2ccccc2Cl)c(=O)c2sccc21`, the AC50 [1] was 10 µM [falling, partial curve].

With `COc1cc(OC)cc(-c2nc3nc(C)c(CCC(=O)Nc4ccccc4)c(C)n3n2)c1` the AC50 [1] was 25.1 µM [falling, partial curve].

With `CCC(=O)Nc1ccc(C)cc1-c1nc2ccccc2n(CC(=O)c2ccc(C)cc2)c1=O` the AC50 [1] was 10 µM [falling, single point].

In the case of `CC(C)(C)OC(=O)N1CCC(c2c(C(=O)NCc3ccco3)cnn2-c2ccc(F)cc2F)CC1`, the AC50 [1] is reported as 12.6 µM [falling, partial curve].

For `Cc1noc2ncnc(N3CCCC(C(=O)Nc4cc(F)ccc4F)C3)c12` (configuration not stated), the AC50 [1] was 3.98 µM [falling, partial curve].

With `COc1ccccc1NC(=O)C1=C(C)Nc2nc(-c3ccco3)nn2C1c1cccc(C)c1` (configuration not stated) the AC50 [1] was 31.6 µM [falling, partial curve].

For `CCOC(=O)c1c(C)c(C(=O)NCc2ccc(Cl)cc2)c(C)n1C`, the AC50 [1] was 1.58 µM [rising, full curve, poor fit].

For `CCc1ccc(-n2c(=O)c3c(C)c(C(=O)N(C)C)sc3n(CC(=O)Nc3cc(Cl)ccc3C)c2=O)cc1`, the AC50 [1] was 0.00631 µM [rising, full curve].

For `CCOCC(=O)Nc1ccc(F)c(F)c1`, the AC50 [1] was 2.51 µM [falling, full curve].

In the case of `O=C(O)[C@@H]1CSC2(CCSC2)N1` (some centres not stated), the AC50 [1] is reported as 12.6 µM [falling, partial curve].

With `C=CCN=C(NC#N)SCC(=O)c1cccc(OC)c1` the AC50 [1] was 15.8 µM [falling, partial curve].

With `CN(C)/C=C/C(=O)c1nnn(C2CCCCC2)c1NC1CCCCC1` the AC50 [1] was 10 µM [falling, partial curve].

With `Cc1ccc(CNC(=O)c2cc(=O)c3cc(C)c(C)cc3o2)cc1` the AC50 [1] was 7.94 µM [rising, single point].

With `CC1CCCCN1Cc1c(O)ccc2c(=O)c(-c3ccc(Cl)cc3)coc12` (configuration not stated) the AC50 [1] was 0.501 µM [rising, full curve, poor fit].

In the case of `COc1ccc(CNC(=O)C2CCCN(C(=O)c3cnn(-c4ccc(F)cc4)c3-n3cccc3)C2)cc1` (configuration not stated), the AC50 [1] is reported as 12.6 µM [falling, partial curve].

For `CCOc1ccc(CC(=O)NCCc2sc(-c3cccc(F)c3)nc2C)cc1`, the AC50 [1] was 20 µM [falling, single point].

For `CCOc1cccc2sc(NC(=O)c3ccc(S(=O)(=O)N4CCCCC4)cc3)nc12`, the AC50 [1] was 7.94 µM [falling, partial curve].
